# Reference: PubChem BioAssay AID651640 (Broad Institute, 2012)
# The whole screen tested about 350,000 compounds, of which about 6,000 (1.7%) were called active. The inconclusive results got no clear call from the source; some entries with a clear call stand among them for comparison. Rule as the data show it: active = CPE inhibition above about 20% (passing the limit was not always enough); inconclusive = no clear call, values can overlap the other calls; tested in BHK-21 cells.
# Test: protection of cells from dengue 2 killing – plate reader, single concentration, primary screen (AID 651640);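 also: 0% = median of neutral control wells and 100% = median of positive control wells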
# Conditions: DENV2-infected cells, cytopathic effect rescue, at 9.99 µM, active compounds read high
row,SMILES,CPE inhibition
1,O=C(NCCN1CCOCC1)c1ccccc1N1C(=O)[C@@H]2Cc3c([nH]c4ccccc34)C(c3ccc(F)cc3)N2C1=O (some centres not stated),inconclusive: 75.9%
2,Cc1noc(C)c1S(=O)(=O)Nc1ccc2c(c1)CC(=O)N([C@H](C)CO)C[C@@H](C)[C@H](CN(C)Cc1ccccc1)O2,active: 21.6%
3,CCOC(=O)C1(Cc2ccc(OC)cc2)CCN(C(=O)CCc2cnccn2)CC1,inactive: 1.09%
4,C[C@H]1CCCCO[C@@H](CN(C)C(=O)Nc2cccc3ccccc23)[C@@H](C)CN([C@@H](C)CO)C(=O)c2cc(NC(=O)Cc3ccccc3)ccc2O1,active: 83.4%
5,Cc1cc(C(=O)OCC(=O)NC2CC2)ccc1[N+](=O)[O-],inconclusive: 22.8%
6,C[C@H](CO)N1C[C@H](C)[C@H](CN(C)Cc2ccc3c(c2)OCO3)Oc2ccc(NS(=O)(=O)c3ccc(F)cc3)cc2CC1=O,inconclusive: 35.2%
7,CC(C)(C)S(=O)N1C[C@@H]2CC(=O)C=C2[C@H]1CCO (some centres not stated),inconclusive: 29.7%
8,Cc1ccc(OCC(=O)N(C)CC(=O)Nc2ccccc2Cl)c([N+](=O)[O-])n1,inconclusive: 27.7%
9,COc1ccc2c(c1OC)C(=O)OC2Nc1nc(-c2cc3cc(Br)ccc3oc2=O)cs1 (configuration not stated),inconclusive: 42.9%
10,CC(C)C(=O)Nc1nnc(S(=O)(=O)N2CCCCCC2)s1,inconclusive: 24.5%
11,Cc1ccccc1OCCOC(=O)c1cc(S(=O)(=O)N2CCCCC2)ccc1N1CCOCC1,inconclusive: 57.2%
12,COc1ccc(S(=O)(=O)N(C)C[C@@H]2Oc3ccc(NC(=O)Nc4cccc5ccccc45)cc3C(=O)N([C@@H](C)CO)C[C@@H]2C)cc1,inconclusive: 35%
13,Cc1ccc(S(=O)(=O)N(C)C[C@H]2Oc3ccc(NC(=O)c4ccncc4)cc3C(=O)N([C@H](C)CO)C[C@@H]2C)cc1,inconclusive: 32.7%
14,O=C(Cn1cc(COc2ccccc2[N+](=O)[O-])nn1)c1ccc(O)cc1,inconclusive: 20.6%
15,CCN(CC(=O)Nc1ccc(OC)cc1)C(=O)c1ccc2c(c1)NC(=O)C(C)S2 (configuration not stated),inconclusive: 40.3%
16,NS(=O)(=O)c1ccc(CCNC(=O)C2(S(=O)(=O)c3ccc(Cl)cc3)CC2)cc1,inconclusive: 42.7%
17,O=C(C[C@H]1C[C@H]2c3cc(NC(=O)C4CCC4)ccc3O[C@H]2[C@@H](CO)O1)NCCN1CCCCC1,inactive: -10.6%
18,O=C(Cn1c2ccc(F)cc2c2nc3n(c(=O)c21)CCS3)Nc1ccccc1C(F)(F)F,inactive: 2.66%
19,O=C(NNS(=O)(=O)c1ccc(F)cc1)C1CC(c2cccnc2)=NO1 (configuration not stated),inactive: -7.35%
20,C/C=C/c1ccc([C@@H]2[C@@H](CO)N3CCCCN(S(=O)(=O)c4ccc(F)cc4)C[C@@H]23)cc1,inconclusive: 35.3%
21,CC[N+](C)(C)c1cccc(O)c1,inconclusive: 52.3%
22,CN(C)CC(=O)N1[C@@H](C#N)[C@@H](c2ccccc2-c2ccc(C(=O)N(C)C)cc2)[C@@H]1CO,inconclusive: 36.3%
23,COc1cccc(S(=O)(=O)N(C)C[C@@H]2Oc3cc(C#CCC(C)C)ccc3S(=O)(=O)N([C@H](C)CO)C[C@H]2C)c1,inactive: 9.99%
24,COC(=O)C(N)CCCCN (configuration not stated),inconclusive: 38.9%

# At a glance, 3 of the compounds above.
row,SMILES,CPE inhibition
9,COc1ccc2c(c1OC)C(=O)OC2Nc1nc(-c2cc3cc(Br)ccc3oc2=O)cs1 (configuration not stated),inconclusive: 42.9%
10,CC(C)C(=O)Nc1nnc(S(=O)(=O)N2CCCCCC2)s1,inconclusive: 24.5%
11,Cc1ccccc1OCCOC(=O)c1cc(S(=O)(=O)N2CCCCC2)ccc1N1CCOCC1,inconclusive: 57.2%

# (next part)

row,SMILES,CPE inhibition
1,Cc1ccc2oc(C(=O)N(Cc3ccncc3)CC3CCCO3)c(C)c2c1 (configuration not stated),active: 47.5%
2,COc1ccc(NC(=O)c2cc3c(Cl)nc4ccccc4c3s2)c(OC)c1,inconclusive: 50.3%
3,CO[C@H]1CN(C)C(=O)c2ccc(NC(=O)Nc3ccc(Cl)cc3)cc2OC[C@H](C)N(C)C[C@H]1C,active: 27.5%
4,COc1ccc(NC(=O)CN(C)C(=O)CNC(=O)Cc2cccc3ccccc23)cc1,inconclusive: 35.9%
5,C[C@H](NC(=O)N(C)C[C@@H]1OCc2ccccc2-c2c(n(C)c3ccccc23)C(=O)N([C@H](C)CO)C[C@@H]1C)c1ccccc1,inconclusive: 51.8%
6,C[C@@H]1CN([C@@H](C)CO)C(=O)c2ccccc2-c2ccccc2CO[C@H]1CN(C)S(=O)(=O)c1ccc(C#N)cc1,inconclusive: 34.5%
7,CN(C)CC(=O)N[C@H]1CC[C@@H](CC(=O)NCc2ccc(Cl)cc2)O[C@@H]1CO,inconclusive: 31.2%
8,O=C(C[C@H]1CC[C@@H]2[C@H](COC[C@@H](O)CN2C(=O)Nc2cc(Cl)cc(Cl)c2)O1)NCC1CCCCC1,inconclusive: 22.1%
9,CCCNC(=O)N1[C@H](CO)[C@@H](c2ccccc2)C12CN(C(=O)C1CCCCC1)C2,active: 84.8%
10,COC(=O)Cc1nnn2c1[C@H](C)[C@H](c1ccccc1Br)OCC2,inconclusive: 43.2%
11,C[n+]1ccc(/C=C/c2cccs2)cc1,inactive: -1.42%
12,COc1ccc(NC(=O)C2CCCN(S(C)(=O)=O)C2)cc1 (configuration not stated),inconclusive: 25.5%
13,CCC(=O)N1N=C(c2ccccc2)CC1c1ccccc1 (configuration not stated),inactive: 3.96%
14,O=C(c1ccc2c(c1)OCO2)N1CC(=O)N2[C@H](CO)[C@H](c3ccc(C#CC4CCCC4)cc3)[C@@H]2C1,inconclusive: 38.2%
15,O=C(OCc1ccccc1)N1CCCC2CC1c1ccccc12 (configuration not stated),active: 43.8%
16,CCN1CCN(c2ccc(S(=O)(=O)N3CCOCC3)cc2NC(=O)/C=C/c2cccc(OC)c2OC)CC1,inconclusive: 42.6%
17,COC(=O)c1cc(NC(=O)c2cccs2)ccc1N1CCOCC1,inconclusive: 21.1%
18,CCCNC(=O)N1[C@H](CO)[C@H](c2ccccc2)[C@@H]1CNC(=O)c1ccccc1,active: 33.3%
19,O=C(Nc1ccc(F)cc1)C1CC(=O)N(Cc2ccco2)C1 (configuration not stated),inactive: 3.96%
20,O=C1CN(C(=O)COC(=O)CNC(=O)c2ccccc2)c2ccccc2N1,inconclusive: 33.7%
21,COC(=O)C[C@H]1CC[C@@H]2[C@@H](COc3ccc(NC(=O)Nc4ccc(C)cc4)cc3C(=O)N2C)O1,inactive: -7.32%
22,C[C@@H]1CN([C@@H](C)CO)S(=O)(=O)c2ccc(-c3ccc(C#N)cc3)cc2O[C@@H]1CN(C)CC1CC1,inconclusive: 22.3%
23,CC(=O)NC(c1ccco1)c1cc(Cl)c2ccc(Cl)nc2c1O (configuration not stated),inconclusive: 48.1%
